# Measurements reported in the M2OR odorant receptor database.
# Chains of the proteins cited; added tags and fusions are not shown. Chains listed by the source or under a name are the forms on record and can include a tag or linker.
# O52E8, as listed by the source: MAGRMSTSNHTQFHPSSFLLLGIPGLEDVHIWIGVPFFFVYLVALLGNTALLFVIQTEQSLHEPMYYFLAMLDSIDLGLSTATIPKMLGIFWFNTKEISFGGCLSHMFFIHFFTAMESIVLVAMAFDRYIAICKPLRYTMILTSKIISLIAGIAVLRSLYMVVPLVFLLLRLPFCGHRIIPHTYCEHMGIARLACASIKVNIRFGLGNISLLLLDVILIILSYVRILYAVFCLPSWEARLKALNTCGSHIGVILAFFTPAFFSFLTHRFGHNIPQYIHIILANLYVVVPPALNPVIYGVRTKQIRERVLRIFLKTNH
# O52E4, as listed by the source: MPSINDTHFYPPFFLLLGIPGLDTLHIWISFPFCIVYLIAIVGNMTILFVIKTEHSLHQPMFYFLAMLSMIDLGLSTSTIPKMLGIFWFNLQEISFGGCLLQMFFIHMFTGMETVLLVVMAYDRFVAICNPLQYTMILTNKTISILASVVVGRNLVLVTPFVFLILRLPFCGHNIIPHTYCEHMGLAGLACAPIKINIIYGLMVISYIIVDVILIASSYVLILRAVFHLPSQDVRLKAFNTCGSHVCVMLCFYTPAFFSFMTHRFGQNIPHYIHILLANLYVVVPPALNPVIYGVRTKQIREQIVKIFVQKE
# O52E1, as listed by the source: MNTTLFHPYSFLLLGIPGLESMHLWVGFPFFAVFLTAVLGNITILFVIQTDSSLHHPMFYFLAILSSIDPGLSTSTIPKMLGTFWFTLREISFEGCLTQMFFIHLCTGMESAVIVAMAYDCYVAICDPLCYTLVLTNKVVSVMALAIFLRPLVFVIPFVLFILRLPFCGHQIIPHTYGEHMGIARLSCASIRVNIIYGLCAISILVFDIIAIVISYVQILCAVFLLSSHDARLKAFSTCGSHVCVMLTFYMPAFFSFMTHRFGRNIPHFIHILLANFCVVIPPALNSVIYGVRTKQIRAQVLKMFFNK
# O52E5, as listed by the source: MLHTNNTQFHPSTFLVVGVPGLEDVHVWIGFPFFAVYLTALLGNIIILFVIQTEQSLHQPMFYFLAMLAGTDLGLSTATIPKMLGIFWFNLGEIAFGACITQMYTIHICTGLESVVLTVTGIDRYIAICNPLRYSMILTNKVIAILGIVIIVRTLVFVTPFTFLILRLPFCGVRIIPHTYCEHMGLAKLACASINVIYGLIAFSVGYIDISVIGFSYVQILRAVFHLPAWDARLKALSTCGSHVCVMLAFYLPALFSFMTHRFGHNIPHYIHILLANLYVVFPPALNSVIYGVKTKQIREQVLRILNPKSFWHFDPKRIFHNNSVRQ
# O51V1, as listed by the source: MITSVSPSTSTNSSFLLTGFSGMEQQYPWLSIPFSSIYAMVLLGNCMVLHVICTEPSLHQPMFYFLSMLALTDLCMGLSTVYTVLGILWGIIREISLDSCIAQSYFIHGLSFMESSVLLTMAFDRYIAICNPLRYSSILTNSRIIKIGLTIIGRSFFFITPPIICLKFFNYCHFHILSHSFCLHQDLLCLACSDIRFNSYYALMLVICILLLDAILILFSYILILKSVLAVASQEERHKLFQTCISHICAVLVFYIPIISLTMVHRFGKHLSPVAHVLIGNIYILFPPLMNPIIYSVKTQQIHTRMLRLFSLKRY
# O52E2, as listed by the source: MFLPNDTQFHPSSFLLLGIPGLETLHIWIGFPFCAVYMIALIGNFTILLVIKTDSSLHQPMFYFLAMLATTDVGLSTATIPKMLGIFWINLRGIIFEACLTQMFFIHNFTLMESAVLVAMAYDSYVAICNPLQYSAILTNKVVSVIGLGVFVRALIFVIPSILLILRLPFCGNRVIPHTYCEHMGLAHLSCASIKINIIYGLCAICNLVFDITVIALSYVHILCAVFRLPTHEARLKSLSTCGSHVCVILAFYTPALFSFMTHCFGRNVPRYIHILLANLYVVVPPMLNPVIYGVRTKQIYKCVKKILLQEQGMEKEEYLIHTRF
# O51L1, as listed by the source: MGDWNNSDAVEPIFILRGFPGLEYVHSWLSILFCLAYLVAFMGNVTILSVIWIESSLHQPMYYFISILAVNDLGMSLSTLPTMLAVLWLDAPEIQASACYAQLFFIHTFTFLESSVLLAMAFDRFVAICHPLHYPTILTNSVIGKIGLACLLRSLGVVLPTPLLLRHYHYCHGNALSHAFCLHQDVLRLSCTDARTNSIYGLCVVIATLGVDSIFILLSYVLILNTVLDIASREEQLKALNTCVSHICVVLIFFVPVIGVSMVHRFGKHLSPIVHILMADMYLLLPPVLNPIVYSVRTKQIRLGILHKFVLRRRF
# Where a chain is given by its changes, count along the chain named. The list shows a part of the results, in another mix than the full data. The calls were merged from several studies; some rest on single wells. The list shows a part of the results.
# Tests used:
# Conditions in all cases: stereoisomer not certain
# [1] = system: T1, O51G1
# T1 sequence (whole entry): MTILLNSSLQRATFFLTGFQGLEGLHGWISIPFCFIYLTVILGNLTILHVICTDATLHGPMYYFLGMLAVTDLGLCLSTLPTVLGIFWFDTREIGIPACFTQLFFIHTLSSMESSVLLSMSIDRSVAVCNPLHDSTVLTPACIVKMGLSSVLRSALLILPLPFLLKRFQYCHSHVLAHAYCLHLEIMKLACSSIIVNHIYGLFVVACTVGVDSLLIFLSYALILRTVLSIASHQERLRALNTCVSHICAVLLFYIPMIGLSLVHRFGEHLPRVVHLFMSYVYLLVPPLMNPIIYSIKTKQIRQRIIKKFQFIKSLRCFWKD
# In short: (§1)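 Transient luciferase assays in mammalian cell lines were common, though methods varied by source. The values come from published papers and their supplementary material, with extra details from the original authors when needed. Responsive refers to a measured signal the original authors judged statistically different from baseline, and non-responsive (inactive) to the remainder.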
# [2] = system: T2, O51G2
# T2 sequence (whole entry): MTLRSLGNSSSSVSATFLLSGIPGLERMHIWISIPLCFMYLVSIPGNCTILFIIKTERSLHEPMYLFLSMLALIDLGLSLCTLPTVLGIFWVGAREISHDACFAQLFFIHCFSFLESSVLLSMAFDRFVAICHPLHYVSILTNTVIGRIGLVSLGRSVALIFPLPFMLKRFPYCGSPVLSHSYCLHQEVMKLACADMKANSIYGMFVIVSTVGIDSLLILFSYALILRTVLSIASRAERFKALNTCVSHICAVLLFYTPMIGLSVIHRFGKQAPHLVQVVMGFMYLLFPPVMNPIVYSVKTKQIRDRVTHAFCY
# In short: as §1
# [3] = system: T3, O51J1
# T3 sequence (whole entry): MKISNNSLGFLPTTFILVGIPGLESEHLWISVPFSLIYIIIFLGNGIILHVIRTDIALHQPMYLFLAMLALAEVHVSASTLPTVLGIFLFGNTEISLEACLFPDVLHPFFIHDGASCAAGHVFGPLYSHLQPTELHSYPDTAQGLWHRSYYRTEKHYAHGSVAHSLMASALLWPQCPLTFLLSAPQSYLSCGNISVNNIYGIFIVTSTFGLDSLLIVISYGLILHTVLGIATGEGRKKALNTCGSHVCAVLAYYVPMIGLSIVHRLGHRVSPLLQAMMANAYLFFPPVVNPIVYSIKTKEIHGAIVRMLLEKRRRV
# In short: as §1
# [4] = system: T4, O51L1
# T4 sequence (whole entry): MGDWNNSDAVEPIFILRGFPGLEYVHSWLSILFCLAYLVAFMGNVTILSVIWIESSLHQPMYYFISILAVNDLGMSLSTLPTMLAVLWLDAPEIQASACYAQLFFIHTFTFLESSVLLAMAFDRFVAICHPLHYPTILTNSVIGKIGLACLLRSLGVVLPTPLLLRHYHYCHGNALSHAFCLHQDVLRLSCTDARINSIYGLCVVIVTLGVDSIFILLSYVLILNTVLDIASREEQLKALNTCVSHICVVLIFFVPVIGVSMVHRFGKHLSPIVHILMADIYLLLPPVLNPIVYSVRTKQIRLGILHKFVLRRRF
# In short: as §1
# [5] = system: T5, O51L1; remark: listed apart in the source
# T5 sequence (whole entry): T4 sequence (whole entry) with I196T, V207A, I281M
# In short: as §1
# [6] = system: T6, O51M1
# T6 sequence (whole entry): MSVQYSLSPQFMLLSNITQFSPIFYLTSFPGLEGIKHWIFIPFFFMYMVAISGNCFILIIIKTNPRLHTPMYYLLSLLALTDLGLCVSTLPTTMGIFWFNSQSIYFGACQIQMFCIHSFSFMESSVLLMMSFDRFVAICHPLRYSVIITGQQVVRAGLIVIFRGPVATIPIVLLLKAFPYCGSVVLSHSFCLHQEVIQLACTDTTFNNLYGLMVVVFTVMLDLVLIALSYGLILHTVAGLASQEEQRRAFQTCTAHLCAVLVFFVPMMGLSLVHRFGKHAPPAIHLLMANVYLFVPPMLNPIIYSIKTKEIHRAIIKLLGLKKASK
# In short: as §1
# [7] = system: T7, O51Q1
# T7 sequence (whole entry): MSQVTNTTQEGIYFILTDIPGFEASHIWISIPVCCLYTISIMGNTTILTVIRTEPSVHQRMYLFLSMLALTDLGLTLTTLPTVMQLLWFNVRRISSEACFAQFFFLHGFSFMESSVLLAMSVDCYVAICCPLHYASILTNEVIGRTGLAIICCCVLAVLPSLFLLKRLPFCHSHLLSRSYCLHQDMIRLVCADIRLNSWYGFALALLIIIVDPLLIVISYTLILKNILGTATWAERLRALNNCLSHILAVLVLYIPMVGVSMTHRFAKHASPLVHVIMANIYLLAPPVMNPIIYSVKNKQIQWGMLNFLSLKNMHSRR
# In short: as §1
# [8] = system: T8, O51T1
# T8 sequence (whole entry): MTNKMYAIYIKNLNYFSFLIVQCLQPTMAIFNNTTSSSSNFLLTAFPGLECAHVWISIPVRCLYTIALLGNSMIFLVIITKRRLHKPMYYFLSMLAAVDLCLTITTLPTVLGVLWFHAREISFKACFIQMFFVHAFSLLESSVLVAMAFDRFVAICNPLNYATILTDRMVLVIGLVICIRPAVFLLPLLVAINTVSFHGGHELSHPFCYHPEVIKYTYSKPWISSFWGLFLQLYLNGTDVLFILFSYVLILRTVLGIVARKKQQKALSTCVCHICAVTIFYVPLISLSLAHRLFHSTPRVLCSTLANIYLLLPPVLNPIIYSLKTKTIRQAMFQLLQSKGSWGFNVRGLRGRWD
# In short: as §1
# [9] = system: T9, O51V1
# T9 sequence (whole entry): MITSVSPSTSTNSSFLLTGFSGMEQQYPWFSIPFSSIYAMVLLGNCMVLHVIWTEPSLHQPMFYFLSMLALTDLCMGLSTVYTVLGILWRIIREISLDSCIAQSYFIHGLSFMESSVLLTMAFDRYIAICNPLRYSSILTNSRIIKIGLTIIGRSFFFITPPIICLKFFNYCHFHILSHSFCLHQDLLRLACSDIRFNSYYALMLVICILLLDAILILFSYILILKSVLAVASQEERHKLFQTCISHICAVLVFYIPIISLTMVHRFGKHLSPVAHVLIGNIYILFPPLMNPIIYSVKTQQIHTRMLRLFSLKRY
# In short: as §1
# [10] = system: T10, O51V1; remark: listed apart in the source
# T10 sequence (whole entry): T9 sequence (whole entry) with F30L, W53C, R90G, R189C
# In short: as §1
# [11] = system: T11, O52A1
# T11 sequence (whole entry): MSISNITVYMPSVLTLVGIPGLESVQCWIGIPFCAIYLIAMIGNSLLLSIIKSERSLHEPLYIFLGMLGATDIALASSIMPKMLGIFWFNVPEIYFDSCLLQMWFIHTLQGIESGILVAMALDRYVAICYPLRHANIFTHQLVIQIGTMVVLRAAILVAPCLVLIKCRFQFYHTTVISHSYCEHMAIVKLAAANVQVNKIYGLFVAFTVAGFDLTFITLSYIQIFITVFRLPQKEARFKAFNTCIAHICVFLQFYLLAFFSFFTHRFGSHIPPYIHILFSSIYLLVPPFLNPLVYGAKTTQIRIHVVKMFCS
# In short: as §1
# [12] = system: T12, O52B2
# T12 sequence (whole entry): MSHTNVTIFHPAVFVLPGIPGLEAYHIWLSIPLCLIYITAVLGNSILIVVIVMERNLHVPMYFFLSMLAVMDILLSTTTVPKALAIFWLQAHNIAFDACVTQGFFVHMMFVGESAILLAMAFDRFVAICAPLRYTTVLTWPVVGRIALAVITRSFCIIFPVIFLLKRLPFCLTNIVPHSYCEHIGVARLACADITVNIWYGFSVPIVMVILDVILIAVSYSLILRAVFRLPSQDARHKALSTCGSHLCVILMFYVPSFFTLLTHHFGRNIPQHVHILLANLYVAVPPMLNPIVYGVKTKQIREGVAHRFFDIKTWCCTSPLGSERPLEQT
# In short: as §1
# [13] = system: T13, O52B6
# T13 sequence (whole entry): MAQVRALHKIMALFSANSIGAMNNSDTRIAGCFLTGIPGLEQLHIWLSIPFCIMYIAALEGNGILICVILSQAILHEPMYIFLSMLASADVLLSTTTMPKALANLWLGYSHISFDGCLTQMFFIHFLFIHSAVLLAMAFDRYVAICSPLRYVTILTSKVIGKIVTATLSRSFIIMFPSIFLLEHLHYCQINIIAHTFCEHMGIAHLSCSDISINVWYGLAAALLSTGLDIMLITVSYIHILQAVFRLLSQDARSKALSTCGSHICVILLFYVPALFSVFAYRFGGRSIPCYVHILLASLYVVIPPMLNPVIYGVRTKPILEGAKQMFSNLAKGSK
# In short: as §1
# [14] = system: O52E1
# In short: as §1
# [15] = system: O52E2
# In short: as §1
# [16] = system: O52E4
# In short: as §1
# [17] = system: O52E5
# In short: as §1
# [18] = system: O52E8
# In short: as §1
# [19] = system: T14, O52I2
# T14 sequence (whole entry): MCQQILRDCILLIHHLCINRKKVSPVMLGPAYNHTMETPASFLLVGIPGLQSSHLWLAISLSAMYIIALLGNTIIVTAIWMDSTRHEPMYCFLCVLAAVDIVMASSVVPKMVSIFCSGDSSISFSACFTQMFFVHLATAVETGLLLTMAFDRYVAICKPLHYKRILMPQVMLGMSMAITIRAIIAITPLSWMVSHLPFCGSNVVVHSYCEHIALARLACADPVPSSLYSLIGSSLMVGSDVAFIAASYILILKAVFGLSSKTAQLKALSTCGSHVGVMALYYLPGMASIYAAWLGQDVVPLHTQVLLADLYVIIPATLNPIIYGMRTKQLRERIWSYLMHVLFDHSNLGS
# In short: as §1
# [20] = system: T15, O52H1
# T15 sequence (whole entry): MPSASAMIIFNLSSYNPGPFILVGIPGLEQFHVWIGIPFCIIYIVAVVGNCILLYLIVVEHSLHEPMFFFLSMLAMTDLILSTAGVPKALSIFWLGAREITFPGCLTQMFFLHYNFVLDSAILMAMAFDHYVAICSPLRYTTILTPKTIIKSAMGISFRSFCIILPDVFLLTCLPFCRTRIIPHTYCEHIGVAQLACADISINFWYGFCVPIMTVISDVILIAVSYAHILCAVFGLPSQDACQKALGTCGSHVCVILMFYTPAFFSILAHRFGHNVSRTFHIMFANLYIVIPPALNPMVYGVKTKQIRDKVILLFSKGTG
# In short: as §1
# 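Further: active if original authors judged signal statistically different from baseline.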
Compound,odorant receptor agonist call [1],odorant receptor agonist call [2],odorant receptor agonist call [3],odorant receptor agonist call [4],odorant receptor agonist call [5],odorant receptor agonist call [6],odorant receptor agonist call [7],odorant receptor agonist call [8],odorant receptor agonist call [9],odorant receptor agonist call [10],odorant receptor agonist call [11],odorant receptor agonist call [12],odorant receptor agonist call [13],odorant receptor agonist call [14],odorant receptor agonist call [15],odorant receptor agonist call [16],odorant receptor agonist call [17],odorant receptor agonist call [18],odorant receptor agonist call [19],odorant receptor agonist call [20]
CC1COCc2cc3c(cc21)C(C)(C)C(C)C3(C)C (stereo not drawn),active,inactive,active,active,active,inactive,inactive,inactive,active,active,inactive,active,active,inactive,active,inactive,inactive,inactive,active,–
CC(C)(C)c1ccc(CCC=O)cc1,inactive,inactive,inactive,inactive,inactive,inactive,inactive,inactive,inactive,active,inactive,inactive,inactive,inactive,inactive,inactive,inactive,inactive,inactive,–
CCCC(=O)O,inactive,inactive,inactive,inactive,inactive,inactive,inactive,inactive,inactive,inactive,inactive,inactive,inactive,inactive,inactive,inactive,inactive,inactive,inactive,active
